{
  "sequences": {"note": "Chains of the proteins cited; added tags and fusions are not shown.", "UniProt P03372, whole entry, looked up": "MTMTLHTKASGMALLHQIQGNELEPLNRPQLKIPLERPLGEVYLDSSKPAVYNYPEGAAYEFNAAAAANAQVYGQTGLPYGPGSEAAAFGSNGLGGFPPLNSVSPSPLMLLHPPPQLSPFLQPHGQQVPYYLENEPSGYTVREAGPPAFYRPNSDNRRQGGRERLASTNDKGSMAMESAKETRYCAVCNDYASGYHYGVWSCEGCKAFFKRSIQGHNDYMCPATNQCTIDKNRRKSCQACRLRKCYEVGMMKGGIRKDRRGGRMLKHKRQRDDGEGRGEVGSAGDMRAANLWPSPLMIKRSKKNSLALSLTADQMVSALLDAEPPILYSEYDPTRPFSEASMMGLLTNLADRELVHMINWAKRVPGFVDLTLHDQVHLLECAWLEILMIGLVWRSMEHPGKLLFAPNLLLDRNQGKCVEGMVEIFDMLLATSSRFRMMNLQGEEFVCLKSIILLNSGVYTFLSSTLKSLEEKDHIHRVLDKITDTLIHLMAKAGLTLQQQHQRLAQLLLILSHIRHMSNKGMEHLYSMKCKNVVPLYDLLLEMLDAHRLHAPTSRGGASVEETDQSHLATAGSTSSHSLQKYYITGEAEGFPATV"},
  "source": "PubChem BioAssay (EPA / NIEHS)",
  "note": "This list was built around the results that the source calls inconclusive (neither active nor inactive); the mix of calls is not that of the screen. Potencies beside an inconclusive call are fits to weak or partial responses and may not hold up. The source made the active and inactive calls. The calls were made as follows: active = hit-call score of the fitted dose curve at least 0.9, where 1 is the maximum; inconclusive = response in the unintended direction; inactive = score below 0.9.",
  "data": [
    {"molecular_target": "Estrogen receptor (Homo sapiens) (UniProt P03372)", "assay": "CCTE_Deisenroth_AIME_384WELL_LUC_Active: CCTE's 384-well Estrogen Receptor Transactivation Assay with AIME metabolic competence (ERTA luciferase; metabolism positive), Deisenroth Lab (AID 2284030)", "procedure": "CCTE_Deisenroth_AIME_384WELL (AIME metabolism assay) is a cell-based, single-readout assay that uses VM7Luc4E2, a human mammary gland/breast cell line, with measurements taken at 24 hour after chemical dosing in a 384-well plate.CCTE_Deisenroth_AIME_384WELL_LUC_Active is one of four assay components measured or calculated from the CCTE_Deisenroth_AIME_384WELL assay. It is designed to make measurements of luciferase induction, a form of inducible reporter, as detected with bioluminescence signals by luciferase-coupled ATP quantitation technology.CCTE_Deisenroth_AIME_384WELL_LUC_Active is a component of the CCTE_Deisenroth_AIME_384WELL assay that measures the effect of retroftting the VM7Luc ERTA assay with the Alginate Immobolization of Metabolic Enzymes (AIME) metabolism method. AIME is optimized to impart phase I hepatic metabolism using phenobarbital/beta-naphthoflavone induced hepatic S9 from male Sprague Dawley rats. Parent chemicals are incubated for 2 hours in the AIME assay prior to transfer to the VM7Luc ERTA assay plate. […] This endpoint evaluates reporter induction in metabolism positive mode. Using a type of inducible reporter in VM7Luc cells, gain-of-signal activity can be used to understand changes in the reporter gene as they relate to xenobiotic metabolism and the gene ESR1. This assay endpoint, CCTE_Deisenroth_AIME_384WELL_LUC_Active, was analyzed in the positive analysis fitting direction relative to 17beta-estradiol as the positive control in the ERTA assay. To generalize the intended target to other relatable targets, this assay endpoint is annotated to the nuclear receptor intended target family, where the subfamily is steroidal.\nThe AIME procedure consists of a preparative \"pre-stamping\" step using a barium chloride/poly-L-lysine (PLL) solution followed by \"stamping\" the lid in alginate-hepatic S9 (metabolism positive) or alginate-water (metabolism negative) to form microspheres. Once stamping is completed, the AIME lids are placed in duplicate microplates (metabolism positive or negative) containing chemical solutions and incubated for two hours to facilitate metabolic reactions. The conditioned medium, containing parent chemical or metabolites, is then transferred to the cell-based VM7Luc Estrogen Receptor Transactivation Assay (ERTA) for 24 hours. A typical experimental design tests a 10-point concentration series (0.002 - 200 uM) for 8 compounds (96-well format)1 or 32 compounds (384-well format)2 in single technical replicate. AIME assay controls include trans-stilbene (bioactivated control) and ethylparaben (bioinactivated control). ERTA assay plate controls include 17-beta estradiol (positive control) and DMSO (solvent control). Experiments typically comprise a minimum of four experimental replicates (n=4).", "values": [
      {"smiles": "Oc1cc2ccccc2c2ccccc12", "AC50": "inconclusive: 13.6 µM"},
      {"smiles": "CCOc1ccc2c(c1)C(C)=CC(C)(C)N2", "AC50": "active: 34.5 µM"},
      {"smiles": "O=c1c(O)c(-c2ccc(O)c(O)c2)oc2cc(O)cc(O)c12", "AC50": "active: 21.2 µM"},
      {"smiles": "CCCCCCCCCCCCOC(=O)c1cc(O)c(O)c(O)c1", "AC50": "inconclusive: 154 µM"},
      {"smiles": "O=c1[nH]sc2ccccc12", "outcome": "inactive"},
      {"smiles": "CN(C)c1ccc(C(=N)c2ccc(N(C)C)cc2)cc1", "AC50": "inconclusive: 19.8 µM"},
      {"smiles": "NC(=O)NN=Cc1ccc([N+](=O)[O-])o1", "AC50": "inconclusive: 100 µM"},
      {"smiles": "c1ccc2[nH]c(-c3cscn3)nc2c1", "AC50": "active: 30.5 µM"},
      {"smiles": "COCC(C)OCC(C)OCC(C)O", "note": "(stereo not given)", "outcome": "inactive"},
      {"smiles": "Cc1cccc(O)c1", "outcome": "inactive"},
      {"smiles": "CCNc1cccc(C)c1", "outcome": "inactive"},
      {"smiles": "NC(=NCCCCCCN=C(N)/N=C(\\N)Nc1ccc(Cl)cc1)/N=C(\\N)Nc1ccc(Cl)cc1", "AC50": "inconclusive: 31.7 µM"},
      {"smiles": "OCCOCCOCCOCCO", "AC50": "active: 0.000342 µM"},
      {"smiles": "CCCCCCCC[N+](C)(CCCCCCCC)CCCCCCCC", "AC50": "inconclusive: 8.39 µM"},
      {"smiles": "CCCCCCCCCCCCOCCOS(=O)(=O)O", "AC50": "inconclusive: 166 µM"},
      {"smiles": "c1ccc2c(c1)ccc1cc3c(ccc4ccccc43)cc12", "AC50": "inconclusive: 9.64 µM"},
      {"smiles": "C[C@]12C[C@H](O)[C@H]3[C@@H](CCC4=CC(=O)CC[C@@]43C)[C@@H]1CC[C@@H]2C(=O)CO", "AC50": "inconclusive: 159 µM"},
      {"smiles": "Cc1nn(C)c(Oc2ccccc2)c1C=NOCc1ccc(C(=O)OC(C)(C)C)cc1", "AC50": "inconclusive: 1.77 µM"},
      {"smiles": "Cc1ccc(C)c(C)c1", "AC50": "inconclusive: 100 µM"},
      {"smiles": "N#CSCSc1nc2ccccc2s1", "outcome": "inactive"},
      {"smiles": "Cc1cn([C@H]2C[C@H](N=[N+]=[N-])[C@@H](CO)O2)c(=O)[nH]c1=O", "outcome": "inactive"},
      {"smiles": "Oc1ccc(Cl)cc1Cc1cc(Cl)ccc1O", "AC50": "inconclusive: 8.86 µM"},
      {"smiles": "Cc1cc(Cc2cc(C)cc(C(C)(C)C)c2O)c(O)c(C(C)(C)C)c1", "AC50": "inconclusive: 3.39 µM"},
      {"smiles": "C(=C(c1ccccc1)c1ccccc1)c1ccccc1", "AC50": "active: 4.42 µM"},
      {"smiles": "CCCCCCCCOC(=O)c1cc(O)c(O)c(O)c1", "AC50": "inconclusive: 100 µM"},
      {"smiles": "CC(CCC(=O)O)(c1ccc(O)cc1)c1ccc(O)cc1", "AC50": "active: 100 µM"},
      {"smiles": "C=C[C@@]1(C)CC(=O)[C@]2(O)[C@@]3(C)[C@@H](O)CCC(C)(C)[C@@H]3[C@H](O)[C@H](OC(C)=O)[C@@]2(C)O1", "AC50": "inconclusive: 2.13 µM"},
      {"smiles": "CCCOC(=O)c1cc(O)c(O)c(O)c1", "AC50": "active: 35.9 µM"},
      {"smiles": "O=C(c1ccccc1)c1ccc(O)cc1O", "AC50": "active: 42.3 µM"},
      {"smiles": "OC12N=C(c3ccccc3)SC1Cc1cc(Cl)ccc12", "note": "(stereo not given)", "outcome": "inactive"},
      {"smiles": "COc1cc([N+](=O)[O-])ccc1N", "outcome": "inactive"},
      {"smiles": "c1ccc2cc3c(ccc4ccccc43)cc2c1", "AC50": "active: 53.8 µM"},
      {"smiles": "CC(C)c1cc(C(C)C)cc(C(C)C)c1", "outcome": "inactive"},
      {"smiles": "CCC(=O)OC(C)(C)C1CC=C(C)CC1", "note": "(stereo not given)", "AC50": "inconclusive: 0.000986 µM"},
      {"smiles": "CCCCC/C=C\\CCC=O", "outcome": "inactive"},
      {"smiles": "CC(=O)OCCOC(C)=O", "outcome": "inactive"},
      {"smiles": "CC(C)C(=O)c1ccccc1", "outcome": "inactive"},
      {"smiles": "CCN(CC)CCNc1ccc(CNC=O)c2sc3ccc(OC)cc3c(=O)c12", "AC50": "inconclusive: 176 µM"},
      {"smiles": "Nc1nc(=S)c2[nH]cnc2[nH]1", "AC50": "inconclusive: 49.7 µM"},
      {"smiles": "O=C1C=CC(=O)N1c1ccccc1", "outcome": "inactive"}
    ]}
  ]
}
